Patent US12678423B2, “Therapeutic agent for amyotrophic lateral sclerosis and composition for treatment” (KEIO UNIVERSITY, priority 2016, dated 2026)

Assays:
Format in all cases: cell-based, human
Settings in all cases: final concentration 10 μM, added days 35 to 40
[1] = test system: motor neurons induced to differentiate from iPS cells derived from ALS patients (FUS-ALS) having a mutation in FUS; assay: Ectopic localization of FUS protein in the cytoplasm, FUS-ALS motor neurons
Text: Therefore, on day 40 from the start of differentiation induction, each differentiation-induced motor neuron in Example I-1 was immunostained and the localization of FUS protein in the cytoplasm was examined.
(§1) Using the differentiation-induced motor neurons in Example I-1, drugs which cause the ALS phenotype to be restored were screened from existing drug libraries with the neurite length, ectopic localization of FUS protein, stress granule formation, LDH leakage ratio, CV-caspase 3-positive ratio, phosphorylated TDP-43 protein inclusion formation, and the like as indices.
(§2) As a result of the screening, ropinirole was found as a promising therapeutic agent for ALS. Tables 5 and 6 show the improvement ratio (%) in the ALS phenotype due to adding ropinirole to the medium. Here, ropinirole was added to the medium on days 35 to 40 from the start of the differentiation induction of each iPS cell. Here, it is assumed that days 35 to 40 from the start of differentiation induction correspond to the early stage of the ALS disease.
(§3) The improvement ratio (%) of the ALS phenotype was calculated by Equation (1).
(§4) [formula] […]
(§5) Subsequently, in the same manner as above, the efficacy in cases of administering lower concentrations of ropinirole was evaluated. […]

[2] = test system: motor neurons induced to differentiate from iPS cells derived from ALS patients (TDP-43-ALS) having a mutation in TDP-43; assay: Phosphorylated TDP-43 protein inclusion formation, TDP-43-ALS motor neurons
Text: Therefore, on day 40 from the start of differentiation induction, each differentiation-induced motor neuron in Example I-1 was immunostained and the formation of phosphorylated TDP-43 protein inclusions was examined.
as §1, §2, §3, §4, §5

[3] = test system: motor neurons induced to differentiate from iPS cells derived from ALS patients (FUS-ALS) having a mutation in FUS; assay: LDH leakage ratio, FUS-ALS motor neurons
Description: (§6) The leakage amount of LDH into the medium is an indicator of cytotoxicity. For measurement of the LDH leakage ratio, a commercially available kit (model “LDH Cytotoxicity Detection Kit”, Takara Bio Inc.) was used.
(§7) Here, ropinirole was added to the medium on days 35 to 40 from the start of the differentiation induction of each iPS cell. Here, it is assumed that days 35 to 40 from the start of differentiation induction correspond to the early stage of the ALS disease.
as §3
(§8) [formula] [In Equation (1), A represents a measurement value of motor neurons induced to differentiate from iPS cells derived from ALS patients in the absence of ropinirole, and B represents a measurement value of motor neurons induced to differentiate from iPS cells derived from ALS patients in the presence of ropinirole, and C represents a measurement value of motor neurons induced to differentiate from iPS cells derived from healthy subjects in the absence of ropinirole.]
(§9) Subsequently, in the same manner as above, the efficacy in cases of administering lower concentrations of ropinirole was evaluated.
(§10) Each drug was added to the medium at a final concentration of 10 μM.

[4] = test system: motor neurons induced to differentiate from iPS cells derived from ALS patients (FUS-ALS) having a mutation in FUS; assay: Stress granule formation (G3BP immunostaining), FUS-ALS motor neurons
Description: On day 40 from the start of differentiation induction, the formation of stress granules was examined using each differentiation-induced motor neuron in Example I-1. The detection of stress granules was performed by immunostaining with G3BP, which is a marker of stress granules.
as §1, §2, §3, §4, §5

[5] = test system: motor neurons induced to differentiate from iPS cells derived from ALS patients (TDP-43-ALS) having a mutation in TDP-43; assay: Neurite length, TDP-43-ALS motor neurons (screening, Example I-8)
Description: (§11) For each differentiation-induced motor neuron in Example I-1, the changes over time in the neurite length were measured. A Bio station CT (Nikon Corp.) was used to measure the neurite length over time. FIG. 1 is a graph showing measurement results of changes over time in the neurite length. The vertical axis represents neurite length (relative value), and the horizontal axis represents the number of days of culturing from the start of differentiation induction.
as §1
as §2, with “Here, it is assumed that days 35 to 40 from the start of differentiation induction correspond to the early stage of the ALS disease.” left out
(§12) The improvement ratio (%) of the ALS phenotype was calculated by Equation (1). […]
as §5

[6] = test system: motor neurons induced to differentiate from iPS cells derived from ALS patients (TDP-43-ALS) having a mutation in TDP-43; assay: LDH leakage ratio, TDP-43-ALS motor neurons
Description: as §6, §7, §3, §8, §9, §10

[7] = test system: motor neurons induced to differentiate from iPS cells derived from ALS patients (FUS-ALS) having a mutation in FUS; assay: Neurite length, FUS-ALS motor neurons (screening, Example I-8)
Description: as §11, §1
as §2, with “Here, it is assumed that days 35 to 40 from the start of differentiation induction correspond to the early stage of the ALS disease.” left out
as §12, §5

Structure (SMILES): Nc1nc2ccc(OC(F)(F)F)cc2s1 [Riluzole]
- Ectopic localization of FUS protein improvement ratio [1]: 6.83%
- TDP-43 inclusion formation improvement ratio [2]: 10.3%
- LDH leakage ratio improvement ratio [3]: 5.83%
- Stress granule formation improvement ratio [4]: 9.38%
- Neurite length improvement ratio [5]: 0.277%
- LDH leakage ratio improvement ratio [6]: −11.7%
- Neurite length improvement ratio [7]: 8.89%
